Laboratory results as given in doi:10.1101/2021.09.16.460581.
These are yes or no findings as the source states them, for the method shown. Binding seen in cells or lysates may run through a third protein. These calls come from enrichment with a bait or labelling near it, and not all partners need be listed. Tags and fused reporters may be left off the sequences shown.

T1: Mrc1-YFP (S. cerevisiae) (UniProt P25588)
T1 sequence: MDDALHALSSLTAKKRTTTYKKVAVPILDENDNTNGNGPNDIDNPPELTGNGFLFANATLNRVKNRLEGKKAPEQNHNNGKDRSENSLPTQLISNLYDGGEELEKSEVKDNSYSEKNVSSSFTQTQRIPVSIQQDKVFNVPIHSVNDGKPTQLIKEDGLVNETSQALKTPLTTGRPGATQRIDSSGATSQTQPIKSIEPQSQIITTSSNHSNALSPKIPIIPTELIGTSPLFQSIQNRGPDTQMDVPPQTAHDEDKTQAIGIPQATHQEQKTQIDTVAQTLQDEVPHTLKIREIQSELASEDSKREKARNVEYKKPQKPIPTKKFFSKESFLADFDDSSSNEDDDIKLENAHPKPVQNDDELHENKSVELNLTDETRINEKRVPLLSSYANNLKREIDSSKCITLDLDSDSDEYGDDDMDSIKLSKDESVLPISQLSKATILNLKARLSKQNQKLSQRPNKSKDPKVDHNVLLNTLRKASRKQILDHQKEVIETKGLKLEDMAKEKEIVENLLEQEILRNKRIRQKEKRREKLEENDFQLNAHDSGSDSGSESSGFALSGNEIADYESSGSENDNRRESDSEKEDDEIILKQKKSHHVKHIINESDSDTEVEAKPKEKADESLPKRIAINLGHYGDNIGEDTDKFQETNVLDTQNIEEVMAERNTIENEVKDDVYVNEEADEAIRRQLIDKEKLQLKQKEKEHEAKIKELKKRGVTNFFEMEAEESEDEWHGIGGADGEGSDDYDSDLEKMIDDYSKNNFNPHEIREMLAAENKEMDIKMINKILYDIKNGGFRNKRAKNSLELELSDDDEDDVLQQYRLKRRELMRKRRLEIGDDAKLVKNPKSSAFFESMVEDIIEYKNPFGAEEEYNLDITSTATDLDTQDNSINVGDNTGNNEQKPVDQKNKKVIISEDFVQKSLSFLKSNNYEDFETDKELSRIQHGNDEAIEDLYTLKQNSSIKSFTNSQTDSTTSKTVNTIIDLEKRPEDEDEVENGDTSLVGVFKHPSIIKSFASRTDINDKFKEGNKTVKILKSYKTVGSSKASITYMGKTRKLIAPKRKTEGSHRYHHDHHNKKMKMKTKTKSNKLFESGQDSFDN

T2: Mrc1-YFP (S. cerevisiae), P25588
T2 chain: T1 sequence

B1: Sis1 (protein, UniProt P25294 1-352)
chain: MVKETKLYDLLGVSPSANEQELKKGYRKAALKYHPDKPTGDTEKFKEISEAFEILNDPQKREIYDQYGLEAARSGGPSFGPGGPGGAGGAGGFPGGAGGFSGGHAFSNEDAFNIFSQFFGGSSPFGGADDSGFSFSSYPSGGGAGMGGMPGGMGGMHGGMGGMPGGFRSASSSPTYPEEETVQVNLPVSLEDLFVGKKKSFKIGRKGPHGASEKTQIDIQLKPGWKAGTKITYKNQGDYNPQTGRRKTLQFVIQEKSHPNFKRDGDDLIYTLPLSFKESLLGFSKTIQTIDGRTLPLSRVQPVQPSQTSTYPGQGMPTPKNPSQRGNLIVKYKVDYPISLNDAQKRAIDENF
B2: Psf1 (protein, UniProt Q12488 1-208)
chain: MYGDLGNKLVLEAKRTKQLYARSNQDVNLPMYHEDIIRNILKEVSNLRKNTEYLKEQQQLGMLDDKVAKCQYFVTLLCMERNKRCLLAYQRLRTDILDSMAWNNNGLDLMSSITFSQQDTNNLSHQEQEYLKEYCDLITDLKSGDLVDIDLSGSLVPPSDVFIDVRVLKDAGEIQTEYGVFNLIKDSQFFVRQSDVERLIQQGYLQKI
B3: Mcm7 (protein, UniProt P38132 1-845)
chain: MSAALPSIQLPVDYNNLFNEITDFLVTFKQDTLSSDATRNENEDENLDAENIEQHLLEKGPKYMAMLQKVANRELNSVIIDLDDILQYQNEKFLQGTQADDLVSAIQQNANHFTELFCRAIDNNMPLPTKEIDYKDDVLDVILNQRRLRNERMLSDRTNEIRSENLMDTTMDPPSSMNDALREVVEDETELFPPNLTRRYFLYFKPLSQNCARRYRKKAISSKPLSVRQIKGDFLGQLITVRGIITRVSDVKPAVEVIAYTCDQCGYEVFQEVNSRTFTPLSECTSEECSQNQTKGQLFMSTRASKFSAFQECKIQELSQQVPVGHIPRSLNIHVNGTLVRSLSPGDIVDVTGIFLPAPYTGFKALKAGLLTETYLEAQFVRQHKKKFASFSLTSDVEERVMELITSGDVYNRLAKSIAPEIYGNLDVKKALLLLLVGGVDKRVGDGMKIRGDINVCLMGDPGVAKSQLLKAICKISPRGVYTTGKGSSGVGLTAAVMKDPVTDEMILEGGALVLADNGICCIDEFDKMDESDRTAIHEVMEQQTISISKAGINTTLNARTSILAAANPLYGRYNPRLSPLDNINLPAALLSRFDILFLMLDIPSRDDDEKLAEHVTYVHMHNKQPDLDFTPVEPSKMREYIAYAKTKRPVMSEAVNDYVVQAYIRLRQDSKREMDSKFSFGQATPRTLLGIIRLSQALAKLRLADMVDIDDVEEALRLVRVSKESLYQETNKSKEDESPTTKIFTIIKKMLQETGKNTLSYENIVKTVRLRGFTMLQLSNCIQEYSYLNVWHLINEGNTLKFVDDGTMDTDQEDSLVSTPKLAPQTTASANVSAQDSDIDLQDA
B4: Sld5 (protein, UniProt Q03406 1-294)
chain: MDINIDDILAELDKETTAVDSTKITQGSSSTTHRDANTIVGSSLDLNDKTQIYVSPQQDFSDLMKSWKNERCSPELLPYPHQLMKRLLNRISMQSQLIENISMGFLDMQNASNANPPMPNESKLPLLCMETELERLKFVIRSYIRCRLSKIDKFSLYLRQLNEDENSLISLTDLLSKDEIKYHDTHSLIWLKLVNDSILKYMPEELQAINDTEGSVNMIDEPDWNKFVFIHVNGPPDGKWNEDPLLQENEFGKPCYTVTIPDLKEEVELTIGSIYVMRYEVIRDLLRDDKVALI
B5: Mcm5 (protein, UniProt P29496 1-775)
chain: MSFDRPEIYSAPVLQGESPNDDDNTEIIKSFKNFILEFRLDSQFIYRDQLRNNILVKNYSLTVNMEHLIGYNEDIYKKLSDEPSDIIPLFETAITQVAKRISILSRAQSANNNDKDPENTSMDTDSLLLNSLPTFQLILNSNANQIPLRDLDSEHVSKIVRLSGIIISTSVLSSRATYLSIMCRNCRHTTSITINNFNSITGNTVSLPRSCLSTIESESSMANESNIGDESTKKNCGPDPYIIIHESSKFIDQQFLKLQEIPELVPVGEMPRNLTMTCDRYLTNKVIPGTRVTIVGIYSIYNSKNGAGSGRSGGGNGGSGVAIRTPYIKILGIQSDVETSSIWNSVTMFTEEEEEEFLQLSRNPKLYEILTNSIAPSIFGNEDIKKAIVCLLMGGSKKILPDGMRLRGDINVLLLGDPGTAKSQLLKFVEKVSPIAVYTSGKGSSAAGLTASVQRDPMTREFYLEGGAMVLADGGVVCIDEFDKMRDEDRVAIHEAMEQQTISIAKAGITTVLNSRTSVLAAANPIYGRYDDLKSPGDNIDFQTTILSRFDMIFIVKDDHNEERDISIANHVINIHTGNANAMQNQQEENGSEISIEKMKRYITYCRLKCAPRLSPQAAEKLSSNFVTIRKQLLINELESTERSSIPITIRQLEAIIRITESLAKLELSPIAQERHVDEAIRLFQASTMDAASQDPIGGLNQASGTSLSEIRRFEQELKRRLPIGWSTSYQTLRREFVDTHRFSQLALDKALYALEKHETIQLRHQGQNIYRSGV
B6: Dpb3, P27344 1-201 (protein)
chain: MSNLVKEKAPVFPISKVKKIAKCDPEYVITSNVAISATAFAAELFVQNLVEESLVLAQLNSKGKTSLRLSLNSIEECVEKRDNFRFLEDAIKQLKKNSALDKKRELNMQPGRSDQEVVIEEPELHEDDGVEEEEEEDEVSEEEEPVHNEELLDDSKDQQNDKSTRSVASLLSRFQYKSALDVGEHSDSSDIEVDHTKSTDP

Molecular target: T1, Mrc1-YFP (S. cerevisiae)
Test: affinity purification with mass spectrometry
Details: not given

binding | Binder
binds | B1
binds | B2
binds | B3
binds | B4
binds | B5

Molecular target: T2, Mrc1-YFP (S. cerevisiae), P25588
Test: affinity purification with mass spectrometry
Details: remark: other sources report otherwise

binding | Binder
binds | B6
